According to US20260097101A1, “Compositions for Use in the Treatment of Diabetes or Obesity” (Dia Beta Labs Ltd, priority 2022, published 2026):
Part of at least one peptide drawing is inferred or uncertain, most often the ends. For some of these results: For at least one compound, name, drawing or mass did not settle the structure. No end group written: not given here.

How the values were obtained:
[1] = system: BRIN-BD11 cells; test: Beta-cell viability by MTT assay; format: cell-based, rodent; conditions: 10^-8-10^-6 M, 18 h
[2] = system: BRIN-BD11 cells; test: Insulin secretion from BRIN-BD11 cells (RIA); format: cell-based, rodent; conditions: 20 min; for alanine induced insulin secretion: 16.7 mM glucose + 10 mM alanine, p<0.05; for 16.7 mM glucose induced insulin secretion: peptides 10^-12-10^-6 M, p<0.05-p<0.001
[3] = system: BRIN-BD11 cells; test: Beta-cell proliferation (Ki-67 staining), with and without Y4 antagonist (S)-VU0637120; format: cell-based, rodent; conditions: for BRIN-BD11 cell proliferation (Ki-67): 10^-8 and 10^-6 M, 18 h; for beta-cell proliferation in the presence of NPYR4 antagonist: with (S)-VU0637120 10^-5 M
Protocol: FIG. 1 illustrates the effects PP peptides on cell viability, insulin release, proliferation and apoptosis from rodent BRIN-BD11 cells. (A) Cells were incubated with test peptides (10^−8-10^−6 M) for 18 h prior to addition of MTT. (B, C) Cells were incubated (20 min) with (B) 16.7 mM glucose or (C) 16.7 mM glucose supplemented with alanine (10 mM), alone and together with test peptides (10^−12-10^−6 M) and insulin secretion assessed by RIA. (D, E) To assess effects on BRIN BD11 beta-cell proliferation and apoptosis and receptor selectivity, cells were incubated with test peptides (10^−8-10^−6 M) alone, or together with cytokine mix (IL-1β 100 Uml, IFN-γ 20 U/ml, TNF-α 200 U/ml), in the absence and presence of the Y4 antagonist, (S)-VU0637120, (10^−5 M), as specified, for 18 h prior to staining for (D) Ki-67 or (E) TUNEL. Values are mean±SEM (n=8). *p<0.05, **p<0.01 and ***p<0.001 compared with appropriate control culture, namely (A, D, E) media alone or (B, C) 16.7 mM glucose. ^Δp<0.05, ^ΔΔp<0.01, ^ΔΔΔp<0.001 compared to (C) 10 mM alanine or (E) cytokine mix. ^φp<0.05, ^φφp<0.01, ^φφφp<0.001 compared to effects in the absence of the NPYR4 antagonist (S)-VU0637120. To examine the effects of PP peptides (10^−8 and 10^−6 M) on beta-cell proliferation and protection against apoptosis, BRIN-BD11 cells were seeded onto sterilised clear-glass coverslips (16 mm diameter) and placed in 12-well plates (Falcon Ltd) at a density of 40,000 cells per well and cultured for 18 h. Unsupplemented media, GLP-1 (10^−8 and 10^−6 M) and a cytokine cocktail mix (IL-1p (100 U/mL), IFNγ (20 U/mL), TNFα (200 U/mL)) were employed as controls, as appropriate. Cells were subsequently rinsed with PBS and fixed using 4% paraformaldehyde. After antigen retrieval with sodium citrate buffer at 95° C. for 20 min, blocking was performed using 2% BSA for 45 min. For proliferation studies, the coverslips were incubated at 37° C. with rabbit anti-Ki-67 primary antibody (Abcam, ab15580), and then with Alexa Fluor®488 secondary antibody. Coverslips were mounted onto polylysine-coated microscope slides and mounted using a 50:50 glycerol:PBS solution and stored at 4° C. until required for analysis. To determine the ability of PP peptides to protect against cytokine-induced apoptosis, BRIN BD11 cells were seeded, washed and fixed as above, with the exception that the media was supplemented with the cytokine mix. The coverslips were then incubated at 37° C. with TUNEL reaction mix (Roche Diagnostics Ltd, UK) for 60 min, and mounted onto microscope slides, as above. […] Proliferation/TUNEL positive frequency was determined using the cell-counter function on ImageJ Software and expressed as % of total cells analysed, as described previously from our laboratory. […]

[4] = system: BRIN-BD11 cells; test: Protection against cytokine-induced apoptosis (TUNEL), with and without Y4 antagonist (S)-VU0637120; format: cell-based, rodent; conditions: for cytokine-induced apoptosis (TUNEL): 10^-6 and 10^-8 M, cytokine mix, 18 h, p<0.05-p<0.001; for protection against cytokine-induced apoptosis with NPYR4 antagonist: co-incubation with (S)-VU0637120 10^-5 M
[5] = system: Swiss mice; test: Acute food intake in overnight fasted mice; format: in vivo; conditions: 25 nmol/kg i.p.; for food intake (appetite suppression): given at 0 h, overnight fasted mice
[6] = system: Swiss mice; test: Acute glucose tolerance and insulin secretion in fasted mice; format: in vivo; conditions: 25 nmol/kg i.p. in combination with glucose 18 mmol/kg, 16 h fasted mice
[7] = system: HFF-STZ mice; test: 28 days twice-daily treatment in HFF-STZ mice; format: in vivo
[8] = system: STZ-diabetic Ins1^Cre/+;Rosa26-eYFP transgenic mice; test: 11 days twice-daily treatment in STZ-diabetic Ins1Cre/+;Rosa26-eYFP transgenic mice; format: in vivo; conditions: 25 nmol/kg twice daily
[9] = system: STZ-diabetic Glu^CreERT2;Rosa26-eYFP transgenic mice; test: 11 days twice-daily treatment in STZ-diabetic GluCreERT2;Rosa26-eYFP transgenic mice; format: in vivo; conditions: 25 nmol/kg twice daily
[10] = day 28, glucose 18 mmol/kg i.p., p<0.001
[11] = day 28, p<0.05 vs HFF-STZ saline control

CC[C@H](C)[C@H](NC(=O)[C@H](Cc1ccc(O)cc1)NC(=O)[C@H](CCCNC(=N)N)NC(=O)[C@H](CCCNC(=N)N)NC(=O)[C@H](CC(C)C)NC(=O)[C@H](CC(=O)O)NC(=O)[C@H](C)NC(=O)[C@H](C)NC(=O)[C@H](Cc1ccc(O)cc1)NC(=O)[C@H](CCC(N)=O)NC(=O)[C@H](C)NC(=O)[C@H](CCSC)NC(=O)[C@H](CCC(N)=O)NC(=O)[C@H](CCC(=O)O)NC(=O)[C@@H]1CCCN1C(=O)[C@@H](NC(=O)[C@H](C)NC(=O)[C@H](CC(N)=O)NC(=O)[C@H](CC(=O)O)NC(=O)CNC(=O)[C@@H]1CCCN1C(=O)[C@H](Cc1ccc(O)cc1)NC(=O)[C@@H](NC(=O)[C@@H]1CCCN1C(=O)[C@H](CCC(=O)O)NC(=O)[C@H](CC(C)C)NC(=O)[C@@H]1CCCN1C(=O)[C@H](C)N)C(C)C)[C@@H](C)O)C(=O)N[C@@H](CC(N)=O)C(=O)N[C@@H](CCSC)C(=O)N[C@@H](CC(C)C)C(=O)N[C@H](C(=O)N[C@@H](CCCNC(=N)N)C(=O)N1CCC[C@H]1C(=O)N[C@@H](CCCNC(=N)N)C(=O)N[C@@H](Cc1ccc(O)cc1)C(N)=O)[C@@H](C)O [Native PP, reference compound]
beta-cell viability (MTT staining) [1]: neither native PP nor [P^3]PP affected
alanine induced insulin secretion [2]: inhibited
16.7 mM glucose induced insulin secretion [2]: inhibited
BRIN-BD11 cell proliferation (Ki-67) [3]: significantly (p<0.001) augmented
beta-cell proliferation in the presence of NPYR4 antagonist [3]: devoid of obvious beta-cell proliferative actions
cytokine-induced apoptosis (TUNEL) [4]: protected against
protection against cytokine-induced apoptosis with NPYR4 antagonist [4]: abolished
food intake (satiety) when administered 4 h prior to re-feeding [5]: only [P^3]PP retained satiety (p<0.01) actions
food intake (appetite suppression) [5]: Significant (p<0.05-p<0.01) appetite suppressive effects
glucose disposal [6]: neither PP nor [P^3]PP had any effect
glucose-stimulated insulin secretion (plasma insulin) [6]: slight reduction

APPEPVYPGDNAKPEQMAQYAADLRRYINMKTRPRY-NH2 (C-terminus assumed) [[P^3]PP]
beta-cell viability (MTT staining) [1]: neither native PP nor [P^3]PP affected
alanine induced insulin secretion [2]: inhibited
16.7 mM glucose induced insulin secretion [2]: inhibited
BRIN-BD11 cell proliferation (Ki-67) [3]: significantly (p<0.001) augmented
beta-cell proliferation in the presence of NPYR4 antagonist [3]: devoid of obvious beta-cell proliferative actions
cytokine-induced apoptosis (TUNEL) [4]: protected against
protection against cytokine-induced apoptosis with NPYR4 antagonist [4]: abolished
food intake (satiety) when administered 4 h prior to re-feeding [5]: retained satiety (p<0.01) actions
food intake (appetite suppression) [5]: Significant (p<0.05-p<0.01) appetite suppressive effects
glucose disposal [6]: neither PP nor [P^3]PP had any effect
glucose-stimulated insulin secretion (plasma insulin) [6]: did not influence
body weight change ([7]; 25 nmol/kg i.p. twice daily, 28 days, vs HFF-STZ saline control): significant (p<0.001) and sustained body weight loss
circulating glucose ([7]; 25 nmol/kg i.p. twice daily, day 7 and remainder of study): notably (p<0.05) reduced
cumulative energy intake ([7]; 25 nmol/kg i.p. twice daily, from day 3 onwards): clear reductions
pancreatic glucagon content ([7]; after 28 days): no obvious effect
alpha:beta ratio ([7]; after 28 days, P<0.001): significantly (P<0.001) reduced
beta-cell area ([7]; after 28 days, p<0.001): increased
beta-cell proliferation (Ki-67) ([7]; after 28 days, p<0.001): augmented
total islet area ([7]; after 28 days, p<0.001): increased
beta-cell apoptotic rate (TUNEL) ([7]; after 28 days, p<0.01): decreased
glucagon-positively stained cells within the islet core ([7]; after 28 days, p<0.05): reduced
islet alpha-cell area ([7]; after 28 days, p<0.05): decreased
pancreatic insulin content ([7]; after 28 days, p<0.05): elevated
percentage of medium sized islets ([7]; after 28 days, p<0.05): increased
percentage of smaller sized islets ([7]; after 28 days, p<0.05): decreased
glucose homeostasis in response to a glucose challenge [7, 10]: significantly improved
glucose-stimulated insulin secretory response [7, 10]: significantly amplified
glucose-lowering effect of exogenous insulin injection (insulin sensitivity) ([7]; day 28, insulin 15 U/kg i.p., non-fasted): did not augment
glucose:insulin ratios ([7]; day 28, p<0.001): clear reductions
plasma glucagon levels [7, 11]: decreased
terminal plasma insulin concentrations [7, 11]: elevated
alpha-cell apoptosis rate [8]: reduced
alpha-cell proliferation rate [8]: reduced
beta-cell apoptosis [8]: reducing
beta-cell dedifferentiation (loss of beta-cell identity; insulin-ve, GFP+ve cells) [8]: reduced loss of beta-cell identity
beta-cell proliferation [8]: increasing
beta-to-alpha transdifferentiation (glucagon+ve, GFP+ cells) [8]: decreased conversion
blood glucose control [8]: no real impact
body weight [8]: near normal levels
food intake [8]: near normal levels
alpha-cell area ([8]; vs STZ control): reduced
beta-cell area ([8]; vs STZ control): enhanced
overall islet area ([8]; vs STZ control): enhanced
alpha-cell dedifferentiation [9]: increased
alpha-cell transdifferentiation (GFP+ cells towards insulin positive phenotype) [9]: increased conversion
metabolic control (body weight, energy intake, glycaemia) [9]: mild improvements
pancreatic islet morphology ([9]; vs STZ control): significantly reversed the negative impact of STZ
